No constants are given. Whether binding was seen depends on the method and setting. For some assays here: In cells and extracts the contact can be indirect. Some binding calls cover weakened binding; strength is not graded here. For some assays here: Where a sequence is shown, tags or fusion partners need not be part of it. One block for each substance: values may come before it.
Key:
Raf-1, wild type [1] = biological target: Raf-1, wild type (UniProt P04049); experiment: co-immunoprecipitation; recapitulation
Raf-1 K375M, kinase-dead = Raf-1 K375M, kinase-dead (UniProt P04049); experiment: co-immunoprecipitation (data not shown)
v-raf = v-raf (UniProt P00532); experiment: co-immunoprecipitation (data not shown)
[2] = biological target: Raf-1 Y340D, constitutively active (UniProt P04049); experiment: co-immunoprecipitation from transfected COS-1 cells
Raf-1, wild type [3] = biological target: Raf-1, wild type (UniProt P04049); experiment: as above
[4] = biological target: T1, FLAG-tagged Tvl-1 (murine) (UniProt Q9Z205); experiment: co-immunoprecipitation of HA- and FLAG-tagged Tvl-1 from COS-1 cells
T1 sequence: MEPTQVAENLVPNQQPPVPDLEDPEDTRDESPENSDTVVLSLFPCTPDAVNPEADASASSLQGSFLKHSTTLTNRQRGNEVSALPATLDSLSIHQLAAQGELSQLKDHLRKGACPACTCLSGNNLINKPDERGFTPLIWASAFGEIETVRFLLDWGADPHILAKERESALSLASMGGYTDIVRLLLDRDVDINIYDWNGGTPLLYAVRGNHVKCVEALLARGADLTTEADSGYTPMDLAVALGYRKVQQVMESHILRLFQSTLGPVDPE

LexA-Raf-1 (human) = LexA-Raf-1 (human) (UniProt P0A7C2+P04049); experiment: yeast two-hybrid (data not shown)
Raf-1, wild type [5] = biological target: Raf-1, wild type (UniProt P04049); experiment: Raf-1 immunoprecipitation from baculovirus-infected Sf9 cells

Substance: FLAG-tagged Tvl-1 (from UniProt Q9Z205 1-269)
binding (Raf-1, wild type [1]): binds
binding (Raf-1 K375M, kinase-dead): binds
binding (v-raf): binds
binding [2]: binds
binding (Raf-1, wild type [3]): binds

binding [4]: binds
Substance: HA-tagged wild type Tvl-1 (from UniProt Q9Z205 1-269)

binding (LexA-Raf-1 (human)): binds
binding (Raf-1, wild type [5]): binds
Substance: Tvl-1, full length (269 amino acids, long form) (from UniProt Q9Z205 1-269)

Reference: patent US6617427
